The other results are listed elsewhere or left out. Many values rest on one well or one pass, so single values are uncertain.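 Pooled together, 41 HAP1 clones carry intronic fluorescent tags on 61 cancer-associated proteins, and each clone is recognized by its imaging pattern. Measurements are benchmarked against DMSO-treated control wells. dBET6, a BRD4 degrader, served as the positive control.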
Legend:
[1] = target: XPO1 (intron 15 mScarlet tag, HAP1) (UniProt O14980); assay: XPO1 fluorescence intensity change vs DMSO (log2 fold change); higher = more XPO1 protein; details: 6 h
[2] = target: BRD4 (intron 10 mScarlet tag, HAP1) (UniProt O60885); assay: BRD4 median nuclear fluorescence intensity change vs DMSO (log2 fold change); higher = more BRD4 protein; details: 6 h

Sequences of proteins named here, by UniProt entry; tags and fusion partners are left off.
UniProt O14980, whole entry: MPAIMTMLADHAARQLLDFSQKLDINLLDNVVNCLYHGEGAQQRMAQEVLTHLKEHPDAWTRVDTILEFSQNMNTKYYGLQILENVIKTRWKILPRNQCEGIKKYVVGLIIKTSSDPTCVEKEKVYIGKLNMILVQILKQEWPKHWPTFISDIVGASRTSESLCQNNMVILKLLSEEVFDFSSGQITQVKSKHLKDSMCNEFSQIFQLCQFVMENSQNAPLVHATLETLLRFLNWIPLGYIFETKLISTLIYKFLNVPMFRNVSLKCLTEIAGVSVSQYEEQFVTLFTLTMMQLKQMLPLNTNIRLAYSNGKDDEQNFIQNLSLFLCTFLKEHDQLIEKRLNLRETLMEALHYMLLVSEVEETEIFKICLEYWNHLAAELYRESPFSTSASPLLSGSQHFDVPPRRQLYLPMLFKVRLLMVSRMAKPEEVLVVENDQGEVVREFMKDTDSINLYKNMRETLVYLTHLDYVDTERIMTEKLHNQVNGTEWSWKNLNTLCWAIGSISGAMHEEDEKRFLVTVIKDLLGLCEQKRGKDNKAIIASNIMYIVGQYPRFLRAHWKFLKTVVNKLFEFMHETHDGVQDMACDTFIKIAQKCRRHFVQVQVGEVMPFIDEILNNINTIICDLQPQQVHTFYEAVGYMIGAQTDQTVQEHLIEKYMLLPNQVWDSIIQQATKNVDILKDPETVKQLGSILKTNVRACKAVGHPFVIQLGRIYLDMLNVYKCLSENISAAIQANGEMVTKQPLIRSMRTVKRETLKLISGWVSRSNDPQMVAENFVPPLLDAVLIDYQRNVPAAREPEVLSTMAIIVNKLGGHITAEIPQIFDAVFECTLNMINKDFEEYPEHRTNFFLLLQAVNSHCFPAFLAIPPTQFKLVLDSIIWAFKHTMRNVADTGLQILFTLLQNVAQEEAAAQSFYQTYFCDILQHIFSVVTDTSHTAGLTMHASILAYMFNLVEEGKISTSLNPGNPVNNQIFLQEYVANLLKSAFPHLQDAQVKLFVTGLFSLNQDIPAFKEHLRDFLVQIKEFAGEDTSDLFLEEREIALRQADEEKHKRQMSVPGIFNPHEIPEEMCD

Row | SMILES | XPO1 fluorescence intensity change (log2) [1] | BRD4 median nuclear fluorescence intensity change (log2) [2]
1 | COc1ccc2c(c1)CCCN(C(=O)C(C)Sc1ccccn1)C2 (centres undefined) (10 µM) | -0.14 | 0.0903
2 | COc1cc(OC)cc(C(=O)N2CCN(c3cccc(C)c3C)CC2)c1 (10 µM) | 0.0135 | 0.157
3 | FC(F)Oc1ccccc1-c1noc(CCl)n1 (10 µM) | -0.296 | 0.0447
4 | Cc1cc2cc(NC(=O)c3ccc(OCc4c(C)noc4C)cc3)ccc2[nH]1 (10 µM) | -0.0255 | 0.169
5 | COC(=O)Nc1ccc(NC(=O)C2(C)CCCc3ccccc32)cc1 (centres undefined) (10 µM) | -0.0208 | 0.0269
6 | CCOC(=O)C1=C(CCl)NC(=O)NC1c1ccccc1Cl (centres undefined) (10 µM) | -0.3 | -0.115
7 | CCN(Cc1ccc2c(c1)OCO2)c1ncnc2ccccc12 (10 µM) | -0.0488 | 0.0947
8 | CCC(C)(C)C1CCC(=NNc2ccccn2)CC1 (centres undefined) (10 µM) | 0.018 | 0.309
9 | Cc1ccccc1OCCN(C)c1ncnc2cc(F)ccc12 (10 µM) | -0.0551 | 0.0309
10 | c1ccc(-c2ccccc2OCc2ccc(-c3nnc4n3CCC4)cc2)cc1 (10 µM) | -0.0226 | 0.00121
11 | Cc1c(Br)c2ccccc2n1CC(=O)Nc1ccn(C)n1 (10 µM) | -0.122 | -0.0555
12 | O=C(CCNC(=O)c1cnccn1)Nc1nc(-c2ccccc2Cl)c(-c2ccccc2Cl)s1 (10 µM) | 0.0313 | 0.00564
13 | CN(C)C(=O)c1ccc(CNC(=O)CCCOc2ccc(C(C)(C)C)cc2)cc1 (10 µM) | -0.135 | 0.0499
14 | Cn1c(=O)[nH]c(=O)c2c1nc(CN1CCN(Cc3ccccc3)CC1)n2Cc1ccc(Cl)cc1 (10 µM) | -0.0711 | 0.00902
15 | CC(C)(C)P(=NC(=S)NCCCO)(N1CCCCCC1)N1CCCCCC1 (0.1 µM) | 0.0484 | 0.0122
16 | Cc1cc(C)cc(OCCOC(=O)c2cc(S(N)(=O)=O)ccc2Cl)c1 (10 µM) | 0.0706 | 0.0505
17 | N#Cc1ccc(N2CCN(Cc3ccc(-c4ccccc4Cl)s3)CC2)nc1 (10 µM) | 0.0278 | 0.0697
18 | Cn1c(=O)c2sccc2n2c(CCl)nnc12 (10 µM) | 0.0865 | -0.0154
19 | CS(=O)(=O)c1ccc(-n2nnnc2CCl)cc1 (0.1 µM) | 0.0644 | 0.00663
20 | COc1cc(OC)c2c(-c3ccccc3)cc(SCC(N)=O)nc2c1 (10 µM) | 0.153 | 0.0744
21 | CC(=O)c1c(C)cc(C)c(COC(=O)Cc2ccc(N3CCCC3=O)cc2)c1C (10 µM) | 0.0156 | -0.0294

Row | SMILES | XPO1 fluorescence intensity change (log2) [1] | BRD4 median nuclear fluorescence intensity change (log2) [2]
22 | CCc1cc2c(NCCc3ccc(OC)c(OC)c3)ncnc2s1 (10 µM) | -0.0596 | -0.0351
23 | Cc1noc(-c2ccccc2NC(=O)c2ccccc2Br)n1 (10 µM) | 0.00377 | 0.0283
24 | CCCCCCC/C=C/C=C(\C)[C@H]1CC(=O)NC[C@H](O)[C@H](C)C(=O)NCC/C=C/C=C/C=C/C(=O)O1 (16 µM) | 0.101 | -0.0312
25 | O=C(Nc1nc2ccccc2s1)NC(c1ccccc1)c1ccco1 (centres undefined) (1 µM) | -0.139 | 0.21
26 | Nc1ncn([C@H]2C[C@H](O)[C@@H](CO)O2)c(=O)n1 [decitabine] (10 µM) | -0.121 | 0.0765
27 | CCN(CC)c1nc2sc(C(=O)NCCCn3cccn3)cc2s1 (10 µM) | -0.0589 | -0.0416
28 | ClCc1nc(Cl)c2cc(-c3ccccc3)oc2n1 (10 µM) | 0.0109 | 0.0175
29 | COc1cc(OC)c2[nH]c(C(=O)Nc3ccc(F)cc3)cc2c1 (10 µM) | 0.0184 | 0.00257
30 | COC(=O)c1ccc(C)c(NC(=O)CCNC(=O)Nc2ccccc2)c1 (10 µM) | 0.0245 | -0.0124
31 | COC(=O)C1=C(C)N(c2ccccc2OC)C(=S)NC1c1ccc(OC)c(O)c1 (centres undefined) (10 µM) | 0.216 | 0.091
32 | Cc1ccc(-c2ccc(C(=O)NCc3nnc4ccccn34)s2)o1 (1 µM) | -0.148 | 0.073
33 | O=C(NCc1ccccc1)c1nnc(CCl)s1 (10 µM) | 0.0274 | 0.053
34 | COc1ccc(-c2nc(N(Cc3ccccc3)C(=O)CSc3nc(C)cc(=O)[nH]3)sc2C)cc1 (10 µM) | -0.302 | 0.0452
35 | c1ccc2c(-c3nc4ccccc4[nH]3)cccc2c1 (0.1 µM) | 0.00527 | -0.0982
36 | Cc1cnc(NC(=O)Cc2ccc(-n3cccc3)cc2)s1 (1 µM) | -0.0529 | 0.0664
37 | CC(=O)OCC(=O)Nc1ccc2c(c1)OCO2 (10 µM) | -0.0725 | 0.0147
38 | Cc1ccc(NC(=O)CCC(=O)N/N=C/c2ccc([N+](=O)[O-])o2)cc1C (10 µM) | -0.0276 | 0.0277
39 | CCOc1ccccc1OCc1nc(N)nc(Nc2ccc(C)cc2)n1 (1 µM) | -0.214 | -0.179
40 | COc1cc(S(=O)(=O)NCCc2c(C)[nH]c3ccc(C)cc23)c(C)cc1C (1 µM) | -0.283 | 0.0878
41 | COc1ccc(/C=C(\C(=O)c2cccs2)N2C=CC=CC2=C(C#N)C#N)cc1OC (1 µM) | 0.0267 | 0.00328
42 | Clc1ccc2[nH]c3c(c2c1)CN(c1ncccn1)CC3 (10 µM) | -0.151 | 0.0571

Row | SMILES | XPO1 fluorescence intensity change (log2) [1] | BRD4 median nuclear fluorescence intensity change (log2) [2]
43 | COC(=O)C1=C(CCl)N(c2ccc(C)cc2)C(=O)NC1c1ccccc1 (centres undefined) (10 µM) | -0.147 | 0.000972
44 | Cc1cc(F)cc(S(=O)(=O)Nc2ccc3c(c2)C(=O)NCC3)c1 (10 µM) | -0.0158 | 0.066
45 | COCc1c(C(=O)Nc2ncnn2C)sc2ccccc12 (10 µM) | 0.0879 | -0.0332
46 | Cc1cc(C)c(NC(=O)c2cnc(C)cn2)c(Cl)c1 (10 µM) | -0.0914 | -0.0631
47 | Cc1cn([C@H]2C[C@H](O)[C@@H](CO)O2)c(=O)[nH]c1=O [thymidine] (10 µM) | 0.0988 | -0.00943
48 | Cc1ccccc1C(=O)Nc1nc2c(s1)CN(C(=O)OC(C)(C)C)CC2 (10 µM) | 0.183 | 0.077
49 | O=C(COC(=O)c1ccc(-c2ccc(O)cc2)cc1)NCc1ccc(F)cc1 (1 µM) | -0.0819 | -0.0787
50 | Cc1cccc(N2CCN(C(=O)c3cccc(Cl)c3)CC2C)c1 (centres undefined) (10 µM) | -0.0207 | -0.037
51 | Cc1nn(Cc2ccccc2)c(C)c1CNC(=O)CN(C)c1c(C)noc1C (10 µM) | 0.265 | 0.0549
52 | CCc1cc(NC(=O)Cc2nc(-c3ccsc3)oc2C)n[nH]1 (1 µM) | -0.365 | -0.00355
53 | COc1ccc(C(=O)Nc2ncc(Cc3ccc(Cl)cc3)s2)cc1 (1 µM) | 0.0257 | 0.0918
54 | CC(=O)Nc1ccc(C(=O)Nc2nc(-c3c(C)[nH]c4ccccc34)cs2)s1 (10 µM) | -0.00424 | -0.0041
55 | COc1ccc(C(=O)Nc2ncc(Cc3ccc(C)cc3)s2)cc1OC (10 µM) | -0.443 | -0.0583
56 | O=C(Nc1cc2c(cc1Cl)OCCCO2)c1cccnc1N1CCCCC1 (10 µM) | 0.115 | 0.0599
57 | Cc1nc2ccc(C(=O)OC(C)C(=O)c3c(C)[nH]c4ccccc34)cc2nc1C (centres undefined) (10 µM) | -0.268 | -0.0362
58 | O=C(NCc1ccoc1)c1cc2c(nc3sccn32)s1 (10 µM) | 0.0973 | 0.0719
59 | Nc1c(Cl)cc(NC(=O)C2CC(c3cccc(F)c3)=NO2)cc1Cl (centres undefined) (10 µM) | 0.0273 | 0.000651
60 | Cn1c(=O)c2c(nc(N3CCNCC3)n2Cc2nnc(-c3ccc(Cl)c(Cl)c3)o2)n(C)c1=O (10 µM) | -0.0496 | -0.0707
61 | CC(=O)N(c1nc(/C=C/C(=O)c2ccc(O)c(CCCl)c2)cs1)c1cccc(C)c1C (10 µM) | 0.0311 | -0.00281
62 | Cc1ccc2c(c1)c(=O)n(C)c1nnc(CCl)n21 (10 µM) | -0.0698 | -0.0659
63 | Nc1nc2[nH]cnc2c(=S)[nH]1 [tioguanine] (10 µM) | -0.111 | 0.0352

Row | SMILES | XPO1 fluorescence intensity change (log2) [1] | BRD4 median nuclear fluorescence intensity change (log2) [2]
64 | CC(NCCN1CCNCC1)c1cc(C(C)(C)C)cc2c1CCC2(C)C (centres undefined) (10 µM) | 0.165 | 0.0796
65 | COc1ccc(-c2cc(-c3c(O)ccc4ccccc34)[nH]n2)cc1OC (10 µM) | -0.0366 | 0.00518
66 | Cc1ccccc1-n1c(C)cc(C(=O)Cn2nc(-c3ccco3)oc2=O)c1C (1 µM) | -0.154 | -0.0598
67 | Cc1ccc2[nH]c(C(=O)N(C)Cc3ccc(Br)o3)cc2c1 (10 µM) | -0.568 | 0.00846
68 | Cc1ccc(Cl)cc1N1CCN(C(=O)NCc2cccs2)CC1 (10 µM) | 0.305 | 0.233
69 | CCn1c(NC(=O)C(c2ccccc2)c2ccccc2)nc2ccccc21 (10 µM) | -0.177 | 0.0034
70 | Cc1sc2nc(-c3ccccn3)nc(NCCCO)c2c1-c1ccccc1 (10 µM) | -0.024 | 0.0477
71 | O=C(/C=C/c1ccc(C(F)(F)F)cc1)c1ccc(O)c(CCCl)c1 (10 µM) | 0.041 | 0.0733
72 | Cc1ccc(Sc2ccc(NC(=O)CCn3cncn3)cc2)cc1C (10 µM) | 0.0326 | 0.0429
73 | O=C(Nc1ccc(S(=O)(=O)C(F)F)cc1)N1CCc2sccc2C1 (0.1 µM) | -0.122 | 0.00664
74 | CCOc1cc(/C=C/C(=O)c2ccc(O)c(CCCl)c2)cc(Br)c1OC (10 µM) | -0.46 | -0.105
75 | CSc1ccc(Cl)c(C(=O)N2CC(=O)Nc3ccccc32)c1 (10 µM) | 0.114 | 0.129
76 | COc1ccnc(NNC(=O)c2ccc3ccccc3n2)n1 (10 µM) | 0.159 | 0.0318
77 | Cn1nc(C(=O)Nc2cccc(C3SCCCS3)c2)c2ccccc2c1=O (0.1 µM) | -0.0742 | 0.00995
78 | CS(=O)(=O)NCCc1ccc(-c2csc(COc3ccccc3)n2)s1 (10 µM) | 0.541 | 0.0782
79 | N#CC(C#N)=C1C=CC=CN1/C(=C/c1ccc(F)cc1)C(=O)c1cccs1 (0.1 µM) | 0.0285 | 0.0322
80 | COc1nc(C(=O)Nc2nc3c(s2)CN(C)CC3)cc2ccccc12 (0.1 µM) | -0.0584 | 0.055
81 | CN(C)C(=O)c1ccc(OCc2ccc(F)c3cccnc23)cc1 (10 µM) | -0.0117 | 0.0804
82 | CC(=O)Nc1ccc(NC(=O)Cc2noc3ccccc23)cc1 (10 µM) | -0.202 | -0.067

Excerpt, nos. 66–69
Row | SMILES | XPO1 fluorescence intensity change (log2) [1] | BRD4 median nuclear fluorescence intensity change (log2) [2]
66 | Cc1ccccc1-n1c(C)cc(C(=O)Cn2nc(-c3ccco3)oc2=O)c1C (1 µM) | -0.154 | -0.0598
67 | Cc1ccc2[nH]c(C(=O)N(C)Cc3ccc(Br)o3)cc2c1 (10 µM) | -0.568 | 0.00846
68 | Cc1ccc(Cl)cc1N1CCN(C(=O)NCc2cccs2)CC1 (10 µM) | 0.305 | 0.233
69 | CCn1c(NC(=O)C(c2ccccc2)c2ccccc2)nc2ccccc21 (10 µM) | -0.177 | 0.0034

— the supplement of paper PMC11098740
